Measured values reported in ChEMBL document CHEMBL5032504, “Discovery and Optimization of a Novel 2H-Pyrazolo[3,4-d]pyrimidine Derivative as a Potent Irreversible Pan-Fibroblast Growth Factor Receptor Inhibitor” (J Med Chem, 2021).

Sequences of proteins named here, by UniProt entry; tags and fusion partners are left off.
UniProt P22455, whole entry: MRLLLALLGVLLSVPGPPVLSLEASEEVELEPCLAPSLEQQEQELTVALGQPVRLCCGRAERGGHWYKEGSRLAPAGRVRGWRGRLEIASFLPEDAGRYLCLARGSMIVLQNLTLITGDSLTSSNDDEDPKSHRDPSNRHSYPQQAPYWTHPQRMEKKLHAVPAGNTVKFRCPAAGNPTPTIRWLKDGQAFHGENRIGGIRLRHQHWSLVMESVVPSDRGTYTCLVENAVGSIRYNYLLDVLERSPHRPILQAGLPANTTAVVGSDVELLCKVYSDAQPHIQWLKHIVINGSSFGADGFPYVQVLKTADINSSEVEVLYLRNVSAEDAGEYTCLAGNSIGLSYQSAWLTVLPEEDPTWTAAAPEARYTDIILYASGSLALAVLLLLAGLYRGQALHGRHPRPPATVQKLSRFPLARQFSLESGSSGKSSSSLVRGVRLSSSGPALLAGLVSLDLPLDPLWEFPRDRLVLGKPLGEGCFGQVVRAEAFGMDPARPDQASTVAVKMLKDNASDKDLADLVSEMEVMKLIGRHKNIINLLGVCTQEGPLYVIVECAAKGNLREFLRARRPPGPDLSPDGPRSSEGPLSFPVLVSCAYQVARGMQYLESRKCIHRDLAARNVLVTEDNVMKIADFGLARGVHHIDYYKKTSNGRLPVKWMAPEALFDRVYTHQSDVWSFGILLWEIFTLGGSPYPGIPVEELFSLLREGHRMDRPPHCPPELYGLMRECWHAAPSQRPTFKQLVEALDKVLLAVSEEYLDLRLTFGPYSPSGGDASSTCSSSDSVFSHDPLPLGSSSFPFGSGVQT
UniProt P22607, whole entry: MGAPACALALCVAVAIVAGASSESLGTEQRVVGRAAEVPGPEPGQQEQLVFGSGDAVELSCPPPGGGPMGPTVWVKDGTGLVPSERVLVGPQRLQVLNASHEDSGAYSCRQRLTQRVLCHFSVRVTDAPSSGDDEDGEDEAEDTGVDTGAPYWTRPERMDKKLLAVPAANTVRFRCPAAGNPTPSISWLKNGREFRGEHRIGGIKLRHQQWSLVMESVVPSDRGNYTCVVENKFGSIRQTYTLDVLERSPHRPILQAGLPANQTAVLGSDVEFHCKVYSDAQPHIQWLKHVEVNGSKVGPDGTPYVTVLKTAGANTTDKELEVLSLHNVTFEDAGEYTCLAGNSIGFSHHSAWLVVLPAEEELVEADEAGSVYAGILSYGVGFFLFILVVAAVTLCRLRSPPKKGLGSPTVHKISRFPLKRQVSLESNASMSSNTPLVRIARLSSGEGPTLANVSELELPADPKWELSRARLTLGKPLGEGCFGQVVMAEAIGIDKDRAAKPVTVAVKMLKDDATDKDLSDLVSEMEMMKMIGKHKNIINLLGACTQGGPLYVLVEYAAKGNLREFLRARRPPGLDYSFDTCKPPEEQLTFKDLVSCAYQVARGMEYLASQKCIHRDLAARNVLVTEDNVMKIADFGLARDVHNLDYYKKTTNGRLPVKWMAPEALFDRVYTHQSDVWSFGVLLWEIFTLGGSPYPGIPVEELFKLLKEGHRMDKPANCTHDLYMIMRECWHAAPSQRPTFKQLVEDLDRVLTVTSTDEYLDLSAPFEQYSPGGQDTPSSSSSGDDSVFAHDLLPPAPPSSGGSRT

Assays:
[1] = target: Fibroblast growth factor receptor 4 (Homo sapiens, UniProt P22455)
[2] = target: Fibroblast growth factor receptor 3 (Homo sapiens, UniProt P22607)
NCI-H1581 = test: cells; assay type: functional, cell-based; conditions: Homo sapiens, NCI-H1581, 96 h
SNU-16 = test: cells; assay type: functional, cell-based; conditions: Homo sapiens, SNU-16, 96 h
SK-HEP1 = test: cells; assay type: functional, cell-based; conditions: Homo sapiens, SK-HEP1, 96 h
Huh-7 = test: cells; assay type: functional, cell-based; conditions: Homo sapiens, Huh-7, 96 h
NCI-H460 = test: cells; assay type: functional, cell-based; conditions: Homo sapiens, NCI-H460, 96 h

Row | SMILES | IC50 [1] [µM] | other results
1 | C=CC(=O)N1CCN(CCCCCn2nc(-c3coc4ccccc34)c3c(N)ncnc32)CC1 | > 5 | 
2 | C=CC(=O)N1CCN(CCCCCn2nc(-c3ccc(OCc4ccccc4)cc3)c3c(N)ncnc32)CC1 | > 5 | IC50 [2]: > 5 µM
3 | COc1cc(OC)cc(-c2nn(CCCCCN3CCN(C(=O)/C=C/CN(C)C)CC3)c3ncnc(N)c23)c1 | > 5 | 
4 | C/C=C/C(=O)N1CCN(CCCCCn2nc(-c3cc(OC)cc(OC)c3)c3c(N)ncnc32)CC1 | > 5 | 
5 | C=CC(=O)N1CCCC(Cn2nc(-c3cc(OC)cc(OC)c3)c3c(N)ncnc32)C1 (configuration not stated) | > 5 | 
6 | C=CC(=O)N1CCC(Cn2nc(-c3cc(OC)cc(OC)c3)c3c(N)ncnc32)C1 (configuration not stated) | > 5 | 
7 | C=CC(=O)N1CC[C@H](n2nc(C#Cc3cc(OC)cc(OC)c3)c3c(N)ncnc32)C1 [FUTIBATINIB] |  | IC50 (NCI-H1581): 0.007 µM; IC50 (SNU-16): 0.004 µM; IC50 (SK-HEP1): 0.152 µM; IC50 (Huh-7): > 10 µM; IC50 (NCI-H460): > 10 µM
